Results from patent US9365868B2, “Fermentation process for producing isopropanol using a recombinant microorganism” (LANZATECH NEW ZEALAND LIMITED, priority 2011, dated 2016).
Some entries share one result that the patent states for a list of compounds.

Tested on: Clostridium autoethanogenum DSM23693
Experiment: Toxicity of acetone and isopropanol on growing cultures
Format: cell-based
Settings: 50 ml PETC media in serum bottles, added to growing cultures
Description: Several metabolites such as alcohols (ethanol and butanol) or acids (acetic acid and butyric acid) are known to be toxic for bacteria in high concentrations and thus limit their biotechnological production [Alsaker K V, Parades C, Papoutsakis E T: Metabolite stress and tolerance in the production of biofuels and chemicals—systems analysis of butanol, butyrate, and Acetate Stresses in the Anaerobe Clostridium acetobutylicum. Biotechnol Bioeng, 2009, 105: 1131-1147]. To see if acetone and isopropanol have a toxic effect on cultures, growth experiments were carried out in 50 ml PETC media (Table 2) in serum bottles, adding different concentrations of acetone (FIG. 12) and isopropanol (FIG. 13) to growing cultures of Clostridium autoethanogenum DSM23693.

CC(C)=O [acetone]
concentration in presence of which cell growth was visible: ≤ 5%
